Laboratory results as given in publication PMC7819943, “Rice protein-binding microarrays: a tool to detect cis-acting elements near promoter regions in rice”.
Some of the results follow.

The sequences below were run against T1, OsSMF1 (Oryza sativa, UniProt Q6ZLB0 1-436) (assay: protein-binding microarray (RPBM); PBS, 2% BSA, 51.3 ng/ul salmon testes DNA, 50 uM zinc acetate, 200 nM TF, 25 C, 1 h; high values mean tight binding). Settings: protein: recombinant; tags: N-terminal polyhistidine and DsRed monomer fusion (pET32a); chain copies: 2; label: CyDye5-dUTP incorporated in the synthesized complementary strand; 3' TTTTT single-stranded linker to array surface; dsDNA, one strand shown.
T1 sequence: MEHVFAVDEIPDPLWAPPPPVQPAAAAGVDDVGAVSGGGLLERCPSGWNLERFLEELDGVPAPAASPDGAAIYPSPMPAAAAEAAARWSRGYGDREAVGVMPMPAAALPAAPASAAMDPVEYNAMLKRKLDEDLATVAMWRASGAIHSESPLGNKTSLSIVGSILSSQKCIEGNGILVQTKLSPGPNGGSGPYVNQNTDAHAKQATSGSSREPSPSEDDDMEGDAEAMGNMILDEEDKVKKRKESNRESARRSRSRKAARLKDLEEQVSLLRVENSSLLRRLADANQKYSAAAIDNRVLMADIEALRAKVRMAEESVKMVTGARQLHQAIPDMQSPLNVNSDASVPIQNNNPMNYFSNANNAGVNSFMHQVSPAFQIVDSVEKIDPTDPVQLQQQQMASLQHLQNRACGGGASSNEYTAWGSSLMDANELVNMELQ
Outline: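 The binding signal is fluorescence intensity per feature, in arbitrary units, read on an Axon 4000B scanner. Polyhistidine- and DsRed-tagged transcription factors (N-terminal fusions) from E. coli BL21-CodonPlus were purified on Ni–NTA and applied at 200 nM for 1 h at 25 °C to a double-stranded, BSA-blocked custom Agilent array in buffer with 50 µM zinc acetate.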

In order of falling binding signal:
1. TTTAATTCAAATGCCACCTAAGCACCACGTCAGCGAAACCCGGAGTCACCTAGTGCAG  42600 fluorescence intensity (a.u.)
2. CCAACAGTAATTAAATGCAGATAAACAGAGATGAAATGGACGGAGTCACCTAGTGCAG  31500 fluorescence intensity (a.u.)
3. ATGCCTCCGTTGGGAGAGATGCCAACACGACACACCAGCTCGGAGTCACCTAGTGCAG  25800 fluorescence intensity (a.u.)
4. GCTTGCTGCTGCTGCTGCTGATAGTTTAGCTTGAGAGAGCCGGAGTCACCTAGTGCAG  22700 fluorescence intensity (a.u.)
5. CAACAATACAGTTATTGGTAATTACAAGCTACTAGTATACCGGAGTCACCTAGTGCAG  18600 fluorescence intensity (a.u.)
6. CGTGTCCAGCCGACAGTATAGCTGAGCTGGCAGTCCGTTCCGGAGTCACCTAGTGCAG  14100 fluorescence intensity (a.u.)
7. TTTTACCAAGTCAGCTGGGACAGGAATTGGCATTGAGTTCCGGAGTCACCTAGTGCAG  12900 fluorescence intensity (a.u.)
8. AGCTGAGTCAGTGTGAGACCCACGTGTCAGAATGCCACTTCGGAGTCACCTAGTGCAG  12200 fluorescence intensity (a.u.)
9. CGAGGGATTCGAGTGACGACACGCGCGCAGGGGTACGTGGCGGAGTCACCTAGTGCAG  7480 fluorescence intensity (a.u.)
10. TTACACGGCCACGTTGGCTGGCGTCGCGGGCCTCGCCTCGCGGAGTCACCTAGTGCAG  6190 fluorescence intensity (a.u.)
11. GCCCGTGTGCCGCCACACGTGGCCCGTATGCGACAAGCCCCGGAGTCACCTAGTGCAG  5750 fluorescence intensity (a.u.)
12. ACGCCAAGTCATGTCATGCATGTACACTTCGTGCATGAATCGGAGTCACCTAGTGCAG  5170 fluorescence intensity (a.u.)
13. ATTAACTACATTGCCATGTAGGACTTTTAGCTTACGTAACCGGAGTCACCTAGTGCAG  5050 fluorescence intensity (a.u.)
14. AGTGCTTTACTCTGCTGATTCATTGTTAAAATTGCCCCTACGGAGTCACCTAGTGCAG  4980 fluorescence intensity (a.u.)
15. TGTTTCTACCTGTTTTGTAGGGATGTGATGCGTCAGTTTTCGGAGTCACCTAGTGCAG  4620 fluorescence intensity (a.u.)
16. CTCCTAGCAGCAACAGGGCCACGTTTGCTCTGCGAACAGGCGGAGTCACCTAGTGCAG  4590 fluorescence intensity (a.u.)
17. TAACTTCATGACTGGTTTTCTTGGAATCTGCTTATCAGTTCGGAGTCACCTAGTGCAG  4540 fluorescence intensity (a.u.)
18. TCTCAACACGTACCCTCTCCTCCATCCGACGGTGGAGACGCGGAGTCACCTAGTGCAG  4400 fluorescence intensity (a.u.)
19. ATGTACCGTTCACACCTATTTTATCACGTGTCCTTGTGCCCGGAGTCACCTAGTGCAG  4390 fluorescence intensity (a.u.)
20. GGACACGACGACGCAACGGGGTCGCATCTCCCTGATTTGGCGGAGTCACCTAGTGCAG  4350 fluorescence intensity (a.u.)
21. AAAGAAGCTAAGAGAGATCAAGTGATGTGGTCGTCGCCGTCGGAGTCACCTAGTGCAG  4320 fluorescence intensity (a.u.)
22. GTCCGGGCCACCGTAAGCGGGTACGTGTCCACTGTCCAGACGGAGTCACCTAGTGCAG  4320 fluorescence intensity (a.u.)
23. CTCGGATGAAGAACCTATGAGATGTCATAATATGGTTTTCCGGAGTCACCTAGTGCAG  4110 fluorescence intensity (a.u.)
24. CTCAACTGTGCTGACATAAAACAACTCATCACATTTTAGGCGGAGTCACCTAGTGCAG  4100 fluorescence intensity (a.u.)
25. TTAATTAGCATCAGCACCATCTAGCCATGTATGCAAACCCCGGAGTCACCTAGTGCAG  4080 fluorescence intensity (a.u.)
26. TTTCACTTTGACTAGAAGCACATGTCATCGATTTTCCTTCCGGAGTCACCTAGTGCAG  3980 fluorescence intensity (a.u.)
27. CAGCCAAAAGCCGTCCATGTCGTCGTGTCGATCAACCCACCGGAGTCACCTAGTGCAG  3880 fluorescence intensity (a.u.)
28. AAATTATGGTGTCACACTGGGCTGTCGTGTGGGCTAGATTCGGAGTCACCTAGTGCAG  3820 fluorescence intensity (a.u.)
29. CACTTGCTCATTCAGCAGCAGCAGCAGCAGCATCAGCATCCGGAGTCACCTAGTGCAG  3710 fluorescence intensity (a.u.)
30. TGCAGTTCCTCACCAAAACGCCATCCCCATCCTCCCTGCCCGGAGTCACCTAGTGCAG  3680 fluorescence intensity (a.u.)
31. CGACCTCGCTTGGCCGCATCCACCGACTTTCCACGCTCGCCGGAGTCACCTAGTGCAG  3650 fluorescence intensity (a.u.)
32. TGCTTGGTAAGGGTGAGGAAATAATGGCGTGACGAAAAGACGGAGTCACCTAGTGCAG  3610 fluorescence intensity (a.u.)
33. GGTCGGTCCAGCTATAACCTGTGTCATCTTACACACCAGACGGAGTCACCTAGTGCAG  3590 fluorescence intensity (a.u.)
34. ACCAATAAATTCGACATAGCTGATACATTTTCAGATGCAACGGAGTCACCTAGTGCAG  3590 fluorescence intensity (a.u.)
35. TGGCCAGACCAGCAACGATGATGTTCGAGCGTCATTCCCCCGGAGTCACCTAGTGCAG  3550 fluorescence intensity (a.u.)
36. GGAAGGTGCTCAGGCAAATTGCTCGTGACAGGGAAGCAGCCGGAGTCACCTAGTGCAG  3540 fluorescence intensity (a.u.)
37. AGCTTTTAGCCGAGGTGGATGCATAGGCCATGGCACCCTACGGAGTCACCTAGTGCAG  3510 fluorescence intensity (a.u.)
38. CGGCAAGACGGCGGCGCGTGGCGGCGGCGAGACCCATCGACGGAGTCACCTAGTGCAG  3190 fluorescence intensity (a.u.)
39. AAGGGAAGACTTCAACCCGGCCGCGGTTGGTGGCGCCATCCGGAGTCACCTAGTGCAG  3180 fluorescence intensity (a.u.)
40. ACTGACCAGCCAACTGGGTTCATGGTTTGTTTGAAACATGCGGAGTCACCTAGTGCAG  3170 fluorescence intensity (a.u.)
41. TTAAAGACTCGTCGTAGGTTGGTTGTATCATACAACTTCGCGGAGTCACCTAGTGCAG  3160 fluorescence intensity (a.u.)
42. TGTATATCGTATATCCGATGTGACACGCCAAAACTTTACACGGAGTCACCTAGTGCAG  3150 fluorescence intensity (a.u.)
